Assay results reported in PMC4838304 (PLoS Computational Biology, 2016).

Experiment: peptide made by a vendor
Conditions: whole synthesis, HPLC and mass spectrometry

Substance | final HPLC purity [%]
TAMRA-chimera | >80
TAMRA-NLS-α-CE woRK | >80
TAMRA-chimera woRK | >50
TAMRA-α-NLS-C | >95
TAMRA-α-NLS-C woRK | >95
TAMRA-NLS-α-CE | >80
